# Results taken from paper PMC3919264.
# Target: taxol-polymerized microtubules from bovine brain tubulin (bovine (purified from bovine brain))
# Test: condition: only in the presence of 2 mM Mg2+-ATP (1–12 µM Kif15 19-375, 5 µM MTs); co-sedimentation; MT pelleting assay with 2 mM Mg2+-ATP: Kif15 19-375 (1–12 µM) mixed with taxol-polymerized MTs (5 µM), 50 mM PIPES pH 6.9, 20 mM NaCl, 2 mM MgCl2, 1 mM DTT, room temperature 10 min, 100 000g at 25°C for 20 min, SDS–PAGE of supernatants and pellets; both purified
binder,measurement,value
"Homo sapiens Kif15 motor domain and neck-linker region (Kif15 19-375) (domain or fragment, UniProt Q9NS87 19-375) QPSNEGDAIKVFVRIRPPAERSGSADGEQNLCLSVLSSTSLRLHSNPEPKTFTFDHVADVDTTQESVFATVAKSIVESCMSGYNGTIFAYGQTGSGKTFTMMGPSESDNFSHNLRGVIPRSFEYLFSLIDREKEKAGAGKSFLCKCSFIEIYNEQIYDLLDSASAGLYLREHIKKGVFVVGAVEQVVTSAAEAYQVLSGGWRNRRVASTSMNRESSRSHAVFTITIESMEKSNEIVNIRTSLLNLVDLAGSERQKDTHAEGMRLKEAGNINRSLSCLGQVITALVDVGNGKQRHVCYRDSKLTFLLRDSLGGNAKTAIIANVHPGSRCFGETLSTLNFAQRAKLIKNKAVVNEDTQG",binding,no binding

# Results are given in words; binding and its absence hold for the method and conditions named.
